The record followed here is patent US5969115A, “Bisazo dyes and their preparation and use” (Ilford Imaging Switzerland GMBH, priority 1997, dated 1999).

The nature of data set [1]: Smudge resistance of printed samples. Conditions: rubbing with slightly wet finger; for Smudge resistance: Table 6. Also noted: key: ⊕: No or little smear; .diamond.: Slight smear; .phi.: Severe smear. How it is done: (§1) The present invention, as far as it relates to inks, is further illustrated by the following examples using dyes according to our invention described in Tables 1 and 2 and dyes representing the state of the art described in Tables 3 and 4. 100 g of each ink were prepared by heating the necessary amount of dye (3-7 g), glycerol (5 g), tetraethylenglycol (1.1 g). and a biocide solution (Promexal X50, available from Zeneca, Manchester, England) (1.2 g) together with water at a temperature of 50° C. under stirring for one hour. The resulting solution was cooled down to 20° C., pH was adjusted to 7.5 and passed through a Millipore® filter of 0.5 μm pore diameter. The dye quantity was adjusted in a way that the density of the printed images was the same for all dyes.
(§2) 30 g of gelatin with a high isoelectric point (type St 70,810, available from Deutsche Gelatinefabriken, Eberbach, Germany) were dissolved in 360 ml of deionised water. 1 g of a surfactant (Olin 10G, available from Olin Corporation, Norwalk, USA) were added to this solution. Immediately before coating 6.6 g of a solution of 2-(4-dimethyl-carbamoyl-pyridino)-ethanesulfonate (3%) were added and pH was adjusted to 6.5. 100 g/m^2 of this solution was then coated onto a resin coated paper support using a bar coater. The recording medium prepared in this way was dried for 12 hours.
(§3) The inks were then jetted onto this recording medium with an HP560 ink jet printer from Hewlett-Packard. The properties of the printed samples were evaluated later on.
The smudge behavior of printed samples was determined by rubbing a dye patch of high density with a slightly wet finger. The smudge resistance is indicated in the following way:
⊕: No or little smear

A short description of data set [2]: Bronzing of printed samples. To be noted: in words. How it is done:
as §1, §2, §3

Structures are written as SMILES.

Take `O=S(=O)(O)CCNc1ccc2cc(S(=O)(=O)O)c(N=Nc3ccc(N=Nc4cccc(CO)c4)c4ccc(S(=O)(=O)O)cc34)c(O)c2c1` [Compound 1]: the Smudge resistance entry in data set [1] is “.diamond”.
The same measure, in the same setting: the value for `O=C(O)c1cccc(N=Nc2ccc(N=Nc3c(S(=O)(=O)O)cc4ccc(NCCS(=O)(=O)O)cc4c3O)c3cc(S(=O)(=O)O)ccc23)c1` [Compound 2] was “.diamond”; that for `O=S(=O)(O)CCNc1ccc2cc(S(=O)(=O)O)c(N=Nc3ccc(N=Nc4ccc(S(=O)(=O)O)cc4)c4ccc(S(=O)(=O)O)cc34)c(O)c2c1` [Compound 3] was “.diamond”.
For the compound `O=S(=O)(O)CCNc1ccc2cc(S(=O)(=O)O)c(N=Nc3ccc(N=Nc4ccc(S(=O)(=O)O)cc4)c4cc(S(=O)(=O)O)ccc34)c(O)c2c1` [Compound 4], in data set [1], the Smudge resistance result was “⊕”.
As for `O=S(=O)(O)CCNc1ccc2cc(S(=O)(=O)O)c(N=Nc3ccc(N=Nc4ccc(S(=O)(=O)O)cc4)c4ccc(S(=O)(=O)O)cc34)c(O)c2c1` [Compound 5], the Smudge resistance entry in data set [1] was “⊕”. In addition, the bronzing entry in data set [2] is “do not show bronzing”.
For `O=S(=O)(O)CCNc1ccc2cc(S(=O)(=O)O)c(N=Nc3ccc(N=Nc4cccc(S(=O)(=O)O)c4)c4cc(S(=O)(=O)O)ccc34)c(O)c2c1` [Compound 6], the Smudge resistance result in data set [1] is on record as “⊕”.
Consider `O=C(O)Cc1ccc(N=Nc2ccc(N=Nc3c(S(=O)(=O)O)cc4ccc(NCCS(=O)(=O)O)cc4c3O)c3cc(S(=O)(=O)O)ccc23)cc1` [Compound 7], for which, in data set [1], the Smudge resistance entry is “⊕”. The bronzing entry in data set [2] was “do not show bronzing”.
Turning to `O=S(=O)(O)CCNc1ccc2cc(S(=O)(=O)O)c(N=Nc3ccc(N=Nc4ccc(CS(=O)(=O)O)cc4)c4ccc(S(=O)(=O)O)cc34)c(O)c2c1` [Compound 8], the Smudge resistance result in data set [1] is recorded as “⊕”. Further, the bronzing result in data set [2] was “do not show bronzing”.
As to `O=S(=O)(O)CCNc1ccc2cc(S(=O)(=O)O)c(N=Nc3ccc(N=Nc4ccc(CS(=O)(=O)O)cc4)c4cc(S(=O)(=O)O)ccc34)c(O)c2c1` [Compound 9], the Smudge resistance entry in data set [1] is listed as “⊕”.
On the same count and under the same terms, the result for `O=S(=O)(O)CCNc1ccc2cc(S(=O)(=O)O)c(N=Nc3ccc(N=Nc4ccc(CCO)cc4)c4ccc(S(=O)(=O)O)cc34)c(O)c2c1` [Compound 11] reads “⊕”.
In the case of `O=C(O)CCc1ccc(N=Nc2ccc(N=Nc3c(S(=O)(=O)O)cc4ccc(NCCS(=O)(=O)O)cc4c3O)c3cc(S(=O)(=O)O)ccc23)cc1` [Compound 12], the Smudge resistance result in data set [1] was “⊕”. Moreover, the bronzing result in data set [2] is on record as “do not show bronzing”.
Take `O=C(O)CCC(NC(=O)c1ccc(N=Nc2ccc(N=Nc3c(S(=O)(=O)O)cc4ccc(NCCS(=O)(=O)O)cc4c3O)c3cc(S(=O)(=O)O)ccc23)cc1)C(=O)O` (stereo not drawn) [Compound 14]: the Smudge resistance result in data set [1] is “.diamond”.
In the case of `O=C(O)c1ccc(N=Nc2ccc(N=Nc3c(S(=O)(=O)O)cc4ccc(NCCS(=O)(=O)O)cc4c3O)c3cc(S(=O)(=O)O)ccc23)cc1Cl` [Compound 15], the Smudge resistance entry in data set [1] is listed as “⊕”. Besides, the bronzing result in data set [2] is recorded as “do not show bronzing”.
On the same counts, the results for `O=S(=O)(O)CCNc1ccc2cc(S(=O)(=O)O)c(N=Nc3ccc(N=Nc4cc(Cl)c(S(=O)(=O)O)cc4Cl)c4ccc(S(=O)(=O)O)cc34)c(O)c2c1` [Compound 18] are “⊕” and “do not show bronzing”.
Regarding `O=S(=O)(O)CCNc1ccc2cc(S(=O)(=O)O)c(N=Nc3ccc(N=Nc4cc(S(=O)(=O)O)c5cccc(S(=O)(=O)O)c5c4)c4ccc(S(=O)(=O)O)cc34)c(O)c2c1` [Compound 19], in data set [1], the Smudge resistance result is given as “⊕”.
For `O=S(=O)(O)CCNc1ccc2cc(S(=O)(=O)O)c(N=Nc3ccc(N=Nc4ccc5c(S(=O)(=O)O)cc(S(=O)(=O)O)cc5c4)c4ccc(S(=O)(=O)O)cc34)c(O)c2c1` [Compound 20], in data set [1], the Smudge resistance result is on record as “⊕”. In addition, the bronzing result in data set [2] is “do not show bronzing”.
For `Nc1ccc2cc(S(=O)(=O)O)c(N=Nc3ccc(N=Nc4cc(C(=O)O)cc(C(=O)O)c4)c4ccc(S(=O)(=O)O)cc34)c(O)c2c1` [Compound 24, reference compound], in data set [1] (state of the art dyes, Table 7), the Smudge behavior entry is reported as “⊕”.
